Laboratory results from patent US8529872B2, “Seeds and markers for use in imaging” (Board of Regents, The University of Texas System, priority 2007, dated 2013).

Assay: MRI of capsules/hollow contrast markers filled with contrast agent
Conditions: for contrast in MRI: 1.5-T MRI

| Substance | contrast in MRI | further results |
| --- | --- | --- |
| (CoCl2)0.8(C2H5NO2)0.2 |  | MRI visualization in acrylic and glass hollow contrast markers (2-5 μL aqueous solution (10-1 wt. %), phantom, 1.5-T MRI (T1)): well visualized |
| (CoCl2)0.9(C2H5NO2)0.1 |  | MRI visualization in glass and polymer capsules (aqua solution 0.3-10%, 1.5 T, 3 T, and 7 T MRI, quantities as low as 0.3 μL): well visulalized |
| (CoCl2)n(C2H5NO2)1-n [Example C4] | positive contrast |  |
| L-PG-Bz-DTPA-Gd | positive contrast |  |
